PubChem BioAssay AID1224828 | NIAID | 2016
Aim: 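Find genes required for NF-kappaB p65 moving into the nucleus after LPS in mouse macrophages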 (primary screen). System: mouse RAW264.7 G9 macrophage reporter cells (GFP-p65, Tnf promoter-mCherry). Reagent: siRNA pool against mouse genes, 100 nM. Duration: 2 days siRNA transfection, then 40 min LPS before fixation. Conditions: LPS (Salmonella minnesota R595) at 10 ng/ml. Measurement: 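Imaged p65 nuclear translocation ratio, normalised to the plate median, converted to robust z-scores and averaged across two replicates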. Direction: p65 translocation robust z-score: higher = more nuclear NF-kappaB p65 after LPS than the plate median; nuclear/cytoplasmic p65 ratio: higher = more nuclear NF-kappaB p65. Rule for the call: 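Called active when z exceeds 3.3 or falls under -1.56 (median of Tlr4 controls), giving activity score of at least 50; no calls for control wells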. Calls: active = hit (p65 shift raised or lowered); inactive = no clear change.
This is one part, drawn at random, of about 17,000 deposited reagents. Of all reagents, 762 (4.5%) are marked active. 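Active calls include both raised and lowered p65 entry, mostly lowered; wells with fewer than 50 cells lack a z-score.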 Raw values vary from plate to plate and are shown uncorrected. A number with no mark means an inactive call. Reagent sequences are not shown.

Tspan8 (tetraspanin 8)
- p65 translocation robust z-score: -1.11
- nuclear/cytoplasmic p65 ratio, rep 1: 1.21
- nuclear/cytoplasmic p65 ratio, rep 2: 1.07
- low cell count flag: enough cells to score

Pak6 (p21 (RAC1) activated kinase 6)
- p65 translocation robust z-score: 0.14
- nuclear/cytoplasmic p65 ratio, rep 1: 2.02
- nuclear/cytoplasmic p65 ratio, rep 2: 1.39
- low cell count flag: enough cells to score

Defb6 (defensin beta 6)
- p65 translocation robust z-score: -0.74
- nuclear/cytoplasmic p65 ratio, rep 1: 1.37
- nuclear/cytoplasmic p65 ratio, rep 2: 1.53
- low cell count flag: enough cells to score

Cuedc1 (CUE domain containing 1)
- p65 translocation robust z-score: 0.2
- nuclear/cytoplasmic p65 ratio, rep 1: 1.46
- nuclear/cytoplasmic p65 ratio, rep 2: 1.55
- low cell count flag: enough cells to score

Zfp33b (zinc finger protein 33B)
- p65 translocation robust z-score: -0.23
- nuclear/cytoplasmic p65 ratio, rep 1: 1.29
- nuclear/cytoplasmic p65 ratio, rep 2: 1.32
- low cell count flag: enough cells to score

Serpind1 (serine (or cysteine) peptidase inhibitor, clade D, member 1)
- p65 translocation robust z-score: -1.36
- nuclear/cytoplasmic p65 ratio, rep 1: 1.38
- nuclear/cytoplasmic p65 ratio, rep 2: 1.33
- low cell count flag: enough cells to score

Or10d3 (olfactory receptor family 10 subfamily D member 3)
- p65 translocation robust z-score: 1.36
- nuclear/cytoplasmic p65 ratio, rep 1: 1.71
- nuclear/cytoplasmic p65 ratio, rep 2: 1.32
- low cell count flag: enough cells to score

Iftap (intraflagellar transport associated protein)
- p65 translocation robust z-score: -0.82
- nuclear/cytoplasmic p65 ratio, rep 1: 1.44
- nuclear/cytoplasmic p65 ratio, rep 2: 1.43
- low cell count flag: enough cells to score

Just “nuclear/cytoplasmic p65 ratio, rep 2” (2 entries from above):
Or10d3 (olfactory receptor family 10 subfamily D member 3)	1.32
Iftap (intraflagellar transport associated protein)	1.43

The results go on.
Cd38 (CD38 antigen)
- p65 translocation robust z-score: -0.03
- nuclear/cytoplasmic p65 ratio, rep 1: 1.37
- nuclear/cytoplasmic p65 ratio, rep 2: 1.46
- low cell count flag: enough cells to score

Crebrf (CREB3 regulatory factor)
- nuclear/cytoplasmic p65 ratio, rep 1: 1.52
- nuclear/cytoplasmic p65 ratio, rep 2: 1.56
- low cell count flag: fewer than 50 cells per well; well left out of scoring

Rab1b (RAB1B, member RAS oncogene family)
- nuclear/cytoplasmic p65 ratio, rep 1: 1.47
- nuclear/cytoplasmic p65 ratio, rep 2: 1.41
- low cell count flag: fewer than 50 cells per well; well left out of scoring

Grem1 (gremlin 1, DAN family BMP antagonist)
- p65 translocation robust z-score: 1.27
- nuclear/cytoplasmic p65 ratio, rep 1: 1.86
- nuclear/cytoplasmic p65 ratio, rep 2: 1.7
- low cell count flag: enough cells to score

Vsnl1 (visinin-like 1)
- p65 translocation robust z-score: -0.38
- nuclear/cytoplasmic p65 ratio, rep 1: 1.44
- nuclear/cytoplasmic p65 ratio, rep 2: 1.47
- low cell count flag: enough cells to score

H2-Q8 (histocompatibility 2, Q region locus 8)
- p65 translocation robust z-score: 0.87
- nuclear/cytoplasmic p65 ratio, rep 1: 1.67
- nuclear/cytoplasmic p65 ratio, rep 2: 1.68
- low cell count flag: enough cells to score
